Experimental data from PubChem BioAssay AID212 (DTP/NCI, 2004).
The list does not hold the whole screen: it is rich in T/C values a quarter to a half above the control, in often repeated tests (any T/C) and in doses without a T/C. Further doses and runs are listed elsewhere. T/C gives the treated animals as a percentage of the vehicle group. Schedule codes are those of the source, read here as Q, the interval in days (D) or hours (H), X, the number of doses. Some T/C values are followed by the survivors on the day toxicity was checked, most often the fifth; where none is given, no animal had died by that day. Some entries were tested several times; the values are given in rising order. Counts like (3×) give the number of equal values in this list. Some doses have a count of surviving animals in place of a T/C: the source files T/C as zero there, which appears to mark a toxic dose or a test without result, not a measured value. Survivors were counted at the toxicity check, usually on the fifth day, unless a day is given; later deaths do not show.

System: BDF1 mice, colon carcinoma 38 sc, T/C %
Experiment: NCI In Vivo Anticancer Drug Screen. Data for tumor model Colon Carcinoma 38 (subcutaneous) in B6D2F1 (BDF1) mice
Conditions: T/C endpoint: median tumor weight (est.), higher T/C = larger tumour; for T/C: evaluated on day 20
Description: The antitumor activity of compounds was measured in mice bearing transplantable tumors. Survival or tumor size were measured and the results are expressed as the measurement made in the treated group (T) divided by the measurement made in the vehicle treated control group (C). The tumor model used in this assay is Colon Carcinoma 38 (subcutaneous) in B6D2F1 (BDF1) mice

[1] = dose: 50.0 mg/kg/injection, schedule: Q07DX002 (ip), vehicle: Klucel (hydroxypropylcellulose) (HPC)
[2] = dose: 100.0 mg/kg/injection, schedule: Q07DX002 (ip), vehicle: Klucel (hydroxypropylcellulose) (HPC)
[3] = dose: 200.0 mg/kg/injection, schedule: Q07DX002 (ip), vehicle: Klucel (hydroxypropylcellulose) (HPC)
[4] = dose: 400.0 mg/kg/injection, schedule: Q07DX002 (ip), vehicle: Klucel (hydroxypropylcellulose) (HPC)
[5] = dose: 100.0 mg/kg/injection, schedule: Q07DX002 (ip), vehicle: saline
[6] = dose: 400.0 mg/kg/injection, schedule: Q07DX002 (ip), vehicle: saline
[7] = dose: 12.5 mg/kg/injection, schedule: Q07DX002 (ip), vehicle: saline
[8] = dose: 25.0 mg/kg/injection, schedule: Q07DX002 (ip), vehicle: saline
[9] = dose: 50.0 mg/kg/injection, schedule: Q07DX002 (ip), vehicle: saline
[10] = dose: 128.0 mg/kg/injection, schedule: Q07DX002 (ip), vehicle: saline

C[C@]12CC[C@H]3[C@@H](CCC4=C[C@@H](OC5OCC(OC6OC(CO)C(O)C(O)C6O)C(O)C5O)CC[C@@]43C=O)[C@@]1(O)CCC2C1=CC(=O)OC1 (stereo not given in full)
T/C (dose: 0.63 mg/kg/injection, schedule: Q07DX003 (ip), vehicle: Klucel (hydroxypropylcellulose) (HPC)): 132 % of control

S=c1nc[nH]c2nc[nH]c12
T/C (dose: 25.0 mg/kg/injection, schedule: Q07DX002 (ip), vehicle: Klucel (hydroxypropylcellulose) (HPC)): 3 [8 of 10 alive on day 20], 28 [9 of 10 alive on day 20], 35, 47, 54, 64 [9 of 10 alive on day 20], 78, 87, 91, 93, 113 % of control [8 of 10 alive on day 20] | T/C [1]: 10, 19 [9 of 10 alive on day 20], 41, 54, 57, 58, 63, 64, 70, 126 % of control | survivor count [1]: 5 of 10 on day 20 | T/C [2]: 1 [7 of 10 alive on day 20], 5 [9 of 10 alive on day 20], 9 [8 of 10 alive on day 20], 13, 14 [8 of 10 alive on day 20], 24 [8 of 10 alive on day 20], 27, 38 % of control | survivor count [2]: 1 of 10 on day 20 and 6 of 10 on day 20 | T/C [3]: 15 [9 of 10 alive on day 20] and 35 % of control | survivor count [3]: 0 of 10 on day 20, 1 of 10 on day 20, 2 of 10 on day 20, 3 of 10 on day 20, 4 of 10 on day 20, 4 of 9 on day 20 | T/C [4]: 20 % of control [8 of 10 alive on day 20] | survivor count [4]: 0 of 10 on day 20 and 2 of 10 on day 20

O=C(O)Cc1cccc2c(=O)cc(-c3ccco3)oc12
T/C [5]: 128 % of control | survivor count [6]: 1 of 10 on day 20

Cc1cc(NCCCN(C)C)c2ccc3c(ccc4c(NCCCN(C)C)cc(C)nc43)c2n1
survivor count [7]: 0 of 10 on day 20 | survivor count [8]: 0 of 10 on day 20 | survivor count [9]: 0 of 10 on day 20 | survivor count [5]: 0 of 10 on day 20 | survivor count (dose: 200.0 mg/kg/injection, schedule: Q07DX002 (ip), vehicle: saline): 0 of 10 on day 20 | survivor count [6]: 0 of 10 on day 20

CC1OC(=O)C(C(C)C)NC(=O)C(C(C)C)OC(=O)C(C(C)C)NC(=O)C(C)OC(=O)C(C(C)C)NC(=O)C(C(C)C)OC(=O)C(C(C)C)NC(=O)C(C)OC(=O)C(C(C)C)NC(=O)C(C(C)C)OC(=O)C(C(C)C)NC1=O (stereo not given)
T/C (dose: 5.0 mg/kg/injection, schedule: Q07DX003 (ip), vehicle: saline with Tween-80): 125 % of control | survivor count (dose: 40.0 mg/kg/injection, schedule: Q07DX003 (ip), vehicle: saline with Tween-80): 1 of 10

CC1CCC(n2cnc3c(Cl)ncnc32)O1 (stereo not given)
survivor count (dose: 500.0 mg/kg/injection, schedule: Q07DX002 (ip), vehicle: Klucel (hydroxypropylcellulose) (HPC)): 5 of 10 on day 20 | survivor count (dose: 800.0 mg/kg/injection, schedule: Q07DX002 (ip), vehicle: Klucel (hydroxypropylcellulose) (HPC)): 0 of 10 on day 20 | survivor count (dose: 1000.0 mg/kg/injection, schedule: Q07DX002 (ip), vehicle: Klucel (hydroxypropylcellulose) (HPC)): 0 of 10 on day 20 | survivor count (dose: 2000.0 mg/kg/injection, schedule: Q07DX002 (ip), vehicle: Klucel (hydroxypropylcellulose) (HPC)): 0 of 10 on day 20

Cc1c(N)nc([C@H](CC(N)=O)NC[C@H](N)C(N)=O)nc1C(=O)N[C@H](C(=O)N[C@H](C)[C@@H](O)[C@H](C)C(=O)N[C@H](C(=O)NCCc1nc(-c2nc(C(=O)NCCC[S+](C)C)cs2)cs1)[C@@H](C)O)C(OC1OC(CO)C(O)C(O)C1OC1OC(CO)C(O)C(OC(N)=O)C1O)c1cnc[nH]1 (stereo not given in full)
T/C (dose: 1.5 mg/kg/injection, schedule: Q07DX003 (ip), vehicle: saline): 128 % of control | T/C (dose: 16.0 mg/kg/injection, schedule: Q07DX002 (ip), vehicle: saline): 22 [9 of 10 alive on day 20], 68, 86, 112 % of control [9 of 10 alive on day 20] | T/C (dose: 32.0 mg/kg/injection, schedule: Q07DX002 (ip), vehicle: saline): 24, 40 [9 of 10 alive on day 20], 52, 104 % of control | T/C (dose: 64.0 mg/kg/injection, schedule: Q07DX002 (ip), vehicle: saline): 11 [9 of 10 alive on day 20], 32, 47 [9 of 10 alive on day 20], 59 % of control | T/C [10]: 23 [9 of 10 alive on day 20], 25, 26 % of control [8 of 10 alive on day 20] | survivor count [10]: 6 of 10 on day 20 | survivor count (dose: 256.0 mg/kg/injection, schedule: Q07DX002 (ip), vehicle: saline): 0 of 10 on day 20

C=C1C(=O)OC2/C=C(\C)CC(O)/C=C(/CO)CC(OC(=O)/C(C)=C/C)C12 (stereo not given)
T/C (dose: 15.0 mg/kg/injection, schedule: Q07DX002 (ip), vehicle: saline + alcohol): 147 % of control

CCCCCCC/C=C/C(=O)OC1C(OC2C(OC(CCCCCCC)CC(=O)OC(CCCCCCC)CC(=O)O)OC(C)C(O)C2O)OC(C)C(O)C1O (stereo not given)
T/C (dose: 14.0 mg/kg/injection, schedule: Q07DX002 (ip), vehicle: Klucel (hydroxypropylcellulose) (HPC)): 140 % of control | T/C (dose: 28.0 mg/kg/injection, schedule: Q07DX002 (ip), vehicle: Klucel (hydroxypropylcellulose) (HPC)): 129 and 130 % of control | T/C (dose: 112.0 mg/kg/injection, schedule: Q07DX002 (ip), vehicle: Klucel (hydroxypropylcellulose) (HPC)): 126 % of control | survivor count (dose: 225.0 mg/kg/injection, schedule: Q07DX002 (ip), vehicle: Klucel (hydroxypropylcellulose) (HPC)): 1 of 10 on day 20 | survivor count (dose: 450.0 mg/kg/injection, schedule: Q07DX002 (ip), vehicle: Klucel (hydroxypropylcellulose) (HPC)): 0 of 10 on day 20

O=c1n(CC2CO2)c(=O)n(CC2CO2)c(=O)n1CC1CO1 (stereo not given)
T/C (dose: 3.12 mg/kg/injection, schedule: Q07DX002 (ip), vehicle: saline): 58, 62 [9 of 10 alive on day 20], 91, 93 [9 of 10 alive on day 20], 100, 101 % of control | T/C (dose: 6.25 mg/kg/injection, schedule: Q07DX002 (ip), vehicle: saline): 62, 63, 64, 73, 93 [9 of 10 alive on day 20], 95 % of control | T/C [7]: 48, 52, 61, 62, 86, 94 % of control | T/C [8]: 32, 43, 53, 54, 60, 70 [9 of 10 alive on day 20], 104 % of control | T/C [9]: 20, 30 (2×), 52, 73, 93 % of control | survivor count [9]: 6 of 10 on day 20 | survivor count [5]: 0 of 10 on day 20, 1 of 10 on day 20, 3 of 10 on day 20, 5 of 10 on day 20 | survivor count (dose: 100.0 mg/kg/injection, schedule: Q07DX002 (ip), vehicle: suspension in saline): 1 of 10 on day 20 and 6 of 10 on day 20 | survivor count (dose: 100.0 mg/kg/injection, schedule: Q07DX003 (ip), vehicle: saline): 6 of 10 on day 20 | survivor count (dose: 200.0 mg/kg/injection, schedule: Q07DX002 (ip), vehicle: saline with Tween-80): 0 of 10 on day 20 and 2 of 10 on day 20 | survivor count (dose: 200.0 mg/kg/injection, schedule: Q07DX002 (ip), vehicle: suspension in saline): 0 of 10 on day 20 and 3 of 10 on day 20 | survivor count (dose: 400.0 mg/kg/injection, schedule: Q07DX002 (ip), vehicle: saline with Tween-80): 0 of 10 on day 20 (2×) | survivor count (dose: 400.0 mg/kg/injection, schedule: Q07DX002 (ip), vehicle: suspension in saline): 0 of 10 on day 20 (2×)
